PMC11608253
These are yes or no findings as the source states them, for the method shown. Binding seen in cells or lysates may run through a third protein.

The chains behind the UniProt entries cited, without tags or fusion partners.
UniProt Q86YZ3: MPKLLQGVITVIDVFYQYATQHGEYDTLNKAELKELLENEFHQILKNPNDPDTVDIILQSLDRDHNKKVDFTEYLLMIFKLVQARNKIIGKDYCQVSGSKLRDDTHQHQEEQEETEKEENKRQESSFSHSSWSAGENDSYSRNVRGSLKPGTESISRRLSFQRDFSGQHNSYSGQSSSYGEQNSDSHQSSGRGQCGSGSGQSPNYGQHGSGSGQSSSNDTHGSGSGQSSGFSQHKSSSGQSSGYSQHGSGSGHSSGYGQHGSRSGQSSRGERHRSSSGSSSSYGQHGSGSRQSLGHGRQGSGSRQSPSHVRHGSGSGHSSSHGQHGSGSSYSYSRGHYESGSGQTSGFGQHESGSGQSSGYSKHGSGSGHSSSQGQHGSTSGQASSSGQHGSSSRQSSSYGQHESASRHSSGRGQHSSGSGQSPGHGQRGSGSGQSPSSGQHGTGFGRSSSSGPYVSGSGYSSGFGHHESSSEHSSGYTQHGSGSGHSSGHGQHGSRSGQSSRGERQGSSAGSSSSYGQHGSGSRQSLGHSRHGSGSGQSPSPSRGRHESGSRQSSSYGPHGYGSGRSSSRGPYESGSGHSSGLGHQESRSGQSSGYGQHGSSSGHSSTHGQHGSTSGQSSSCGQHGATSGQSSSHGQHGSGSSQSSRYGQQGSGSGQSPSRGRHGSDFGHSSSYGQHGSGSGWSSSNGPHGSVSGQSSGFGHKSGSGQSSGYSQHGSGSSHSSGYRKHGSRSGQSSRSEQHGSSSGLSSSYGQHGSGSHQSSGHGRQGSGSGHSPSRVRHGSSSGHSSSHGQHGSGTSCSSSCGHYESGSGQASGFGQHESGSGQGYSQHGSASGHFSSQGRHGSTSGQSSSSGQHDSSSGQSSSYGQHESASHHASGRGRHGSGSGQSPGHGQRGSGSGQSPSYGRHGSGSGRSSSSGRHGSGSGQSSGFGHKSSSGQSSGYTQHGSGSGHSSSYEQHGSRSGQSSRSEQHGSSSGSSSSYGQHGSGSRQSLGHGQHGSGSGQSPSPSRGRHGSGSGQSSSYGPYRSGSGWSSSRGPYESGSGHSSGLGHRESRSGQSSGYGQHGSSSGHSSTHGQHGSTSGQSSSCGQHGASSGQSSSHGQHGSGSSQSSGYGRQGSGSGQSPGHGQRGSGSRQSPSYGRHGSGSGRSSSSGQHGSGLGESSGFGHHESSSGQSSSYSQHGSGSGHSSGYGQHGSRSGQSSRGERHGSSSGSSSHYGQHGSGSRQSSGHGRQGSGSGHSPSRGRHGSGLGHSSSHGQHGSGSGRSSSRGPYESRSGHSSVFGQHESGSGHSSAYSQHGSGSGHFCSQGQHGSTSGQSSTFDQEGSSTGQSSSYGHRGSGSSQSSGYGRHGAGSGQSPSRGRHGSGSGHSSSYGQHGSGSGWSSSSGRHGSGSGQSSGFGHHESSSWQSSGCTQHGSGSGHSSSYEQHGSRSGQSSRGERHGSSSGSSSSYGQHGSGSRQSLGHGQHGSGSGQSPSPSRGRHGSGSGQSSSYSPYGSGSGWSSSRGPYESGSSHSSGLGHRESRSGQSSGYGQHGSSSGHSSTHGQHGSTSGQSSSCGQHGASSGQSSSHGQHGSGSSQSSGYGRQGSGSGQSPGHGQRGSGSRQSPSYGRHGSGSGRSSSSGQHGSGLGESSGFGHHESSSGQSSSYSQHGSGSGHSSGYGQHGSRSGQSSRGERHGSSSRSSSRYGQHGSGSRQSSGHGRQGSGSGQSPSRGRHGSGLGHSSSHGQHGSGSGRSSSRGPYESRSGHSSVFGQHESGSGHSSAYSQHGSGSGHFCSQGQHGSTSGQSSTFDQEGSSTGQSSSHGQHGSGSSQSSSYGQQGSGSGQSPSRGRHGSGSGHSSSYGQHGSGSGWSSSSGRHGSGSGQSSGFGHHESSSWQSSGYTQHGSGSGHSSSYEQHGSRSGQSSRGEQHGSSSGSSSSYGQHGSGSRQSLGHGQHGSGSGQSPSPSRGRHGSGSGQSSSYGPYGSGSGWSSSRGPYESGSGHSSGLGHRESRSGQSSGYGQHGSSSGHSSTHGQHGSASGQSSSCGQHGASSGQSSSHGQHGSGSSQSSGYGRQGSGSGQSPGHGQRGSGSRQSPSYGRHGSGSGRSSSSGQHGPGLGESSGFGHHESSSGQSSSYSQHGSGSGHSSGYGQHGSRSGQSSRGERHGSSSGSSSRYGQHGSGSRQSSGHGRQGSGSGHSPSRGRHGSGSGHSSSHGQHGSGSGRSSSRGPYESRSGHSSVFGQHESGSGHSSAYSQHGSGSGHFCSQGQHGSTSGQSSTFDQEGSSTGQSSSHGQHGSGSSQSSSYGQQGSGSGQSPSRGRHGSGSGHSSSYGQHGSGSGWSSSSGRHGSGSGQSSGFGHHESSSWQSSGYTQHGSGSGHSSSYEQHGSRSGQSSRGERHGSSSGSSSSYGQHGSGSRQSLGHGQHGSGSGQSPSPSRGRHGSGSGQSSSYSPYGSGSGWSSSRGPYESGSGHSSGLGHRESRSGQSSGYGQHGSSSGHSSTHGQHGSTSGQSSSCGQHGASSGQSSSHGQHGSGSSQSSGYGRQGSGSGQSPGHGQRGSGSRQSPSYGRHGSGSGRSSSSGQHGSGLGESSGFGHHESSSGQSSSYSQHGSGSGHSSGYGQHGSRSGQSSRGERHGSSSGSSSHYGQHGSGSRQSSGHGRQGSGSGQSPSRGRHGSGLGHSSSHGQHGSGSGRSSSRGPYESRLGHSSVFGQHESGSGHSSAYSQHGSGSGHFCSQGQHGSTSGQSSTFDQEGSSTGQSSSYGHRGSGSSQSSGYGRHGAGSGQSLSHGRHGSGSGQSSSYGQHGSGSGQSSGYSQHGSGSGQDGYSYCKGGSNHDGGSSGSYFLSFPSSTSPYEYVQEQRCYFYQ
UniProt P49841: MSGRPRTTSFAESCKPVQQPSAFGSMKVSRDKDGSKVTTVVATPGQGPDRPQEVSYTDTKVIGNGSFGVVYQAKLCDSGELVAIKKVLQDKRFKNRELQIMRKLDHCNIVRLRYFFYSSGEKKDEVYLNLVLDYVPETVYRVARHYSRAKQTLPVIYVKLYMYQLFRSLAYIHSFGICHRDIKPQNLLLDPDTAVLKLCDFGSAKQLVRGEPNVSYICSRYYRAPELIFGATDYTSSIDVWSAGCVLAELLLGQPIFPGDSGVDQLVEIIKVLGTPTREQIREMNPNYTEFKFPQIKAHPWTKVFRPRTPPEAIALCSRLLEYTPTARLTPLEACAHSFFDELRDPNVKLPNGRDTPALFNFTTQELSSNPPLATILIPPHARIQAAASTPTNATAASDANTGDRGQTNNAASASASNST
UniProt Q9UBP6: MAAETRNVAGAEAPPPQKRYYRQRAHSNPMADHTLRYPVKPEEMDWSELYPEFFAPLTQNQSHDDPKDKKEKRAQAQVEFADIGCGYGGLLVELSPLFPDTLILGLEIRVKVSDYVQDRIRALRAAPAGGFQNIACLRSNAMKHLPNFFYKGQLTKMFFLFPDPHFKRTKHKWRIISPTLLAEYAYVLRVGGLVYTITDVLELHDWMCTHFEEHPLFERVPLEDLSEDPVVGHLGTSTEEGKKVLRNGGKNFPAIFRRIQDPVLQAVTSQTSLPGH

Target: Hornerin (human (endogenous in HCC cell lines)) (UniProt Q86YZ3)
Assay: co-IP; proteins extracted with RIPA buffer, incubated with specific antibodies overnight, captured on Protein A agarose, washed with cold PBS, western blotting

Substance | binding
GSK3β (from UniProt P49841 1-420) (enzyme) | no binding
METTL1 (from UniProt Q9UBP6 1-276) (enzyme) | no binding
